Taken from: PubChem BioAssay AID602196 (INSERM, 2012)
Aim: 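Genes whose knock-down alters cisplatin killing of lung cancer cells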. System: human A549 lung cancer cells. Knock-down reagent: siRNA pair against human genes. Time to read-out: 48 h transfection before cisplatin; time from cisplatin to read-out not stated. Challenge: cisplatin at a dose killing half of control-siRNA cells; exact dose and duration not given. Read-out: 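Cisplatin cell death as a shift from the 50% death seen with control siRNA; siRNAs toxic or growth-blocking alone scored 0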. Direction: two-siRNA summed score (-2 to +2): higher = both siRNAs protect from cisplatin killing; -2 means both sensitise; mean protection from cisplatin (shift in death) and protection from cisplatin (shift in death), siRNA C and protection from cisplatin (shift in death), siRNA D: higher = protection from cisplatin killing. Active means: 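Each siRNA scores 0 if harmful alone by LDH or WST-1, otherwise +1 if it reduces and -1 if it increases cisplatin killing; a gene is active when both siRNAs agree (sum +2 or -2)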. Calls: active = both siRNAs shift cisplatin killing the same way; inactive = no consistent shift, or siRNA harmful alone.
This is one part, drawn at random, of about 23,000 deposited reagents. In the full data, 455 (2%) got an active call. 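Active includes both protection and sensitisation; some change values fall well beyond the stated -50 to +50 range.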 Not given: the amount of reagent.

gene	two-siRNA summed score (-2 to +2)	mean protection from cisplatin (shift in death) (%)	protection from cisplatin (shift in death), siRNA C (%)	protection from cisplatin (shift in death), siRNA D (%)	Call
LOC401387	0	-0.1	-0.7	0.5	inactive
IL15RA	0	3.3	-6.1	12.6	inactive
TXN2	-1	-4.9	-13.7	3.9	inactive
IPO9	0	-0.1	1.2	-1.4	inactive
CGNL1	0	9.2	16.4	2	inactive
LOC441655	1	8.8	12.2	5.4	inactive
LOC401280	0	6.3	6.9	5.6	inactive
ZNF710	0	7.3	12.3	2.4	inactive
MUSTN1	1	10.2	2.7	17.8	inactive
SEMA6C	1	11.6	-6.1	29.2	inactive
ADAMTS17	0	2.2	12.4	-8.1	inactive
COL4A2	1	17.8	30.3	5.3	inactive
WDFY2	0	5	6.6	3.3	inactive
LOC441759	1	42.5	39.2	45.9	inactive
TCAF2	0	4.4	3.8	4.9	inactive
LOC440635	0	19	20	18	inactive
C2orf42	0	-11.2	-18.3	-4.2	inactive
POLE	0	-11.7	-12.9	-10.4	inactive
PSEN1	0	-3.4	-25	18.3	inactive
LOC400761	0	6.5	-3.8	16.7	inactive
ARFIP2	-1	-23.4	-36.1	-10.6	inactive
MSANTD2	0	12.1	11.6	12.7	inactive
REEP1	0	-2.4	-1.1	-3.8	inactive
ARGLU1-DT	1	14.4	20.8	8	inactive
GRM5	0	-0.2	-3.4	3.1	inactive
SAYSD1	1	5.5	16.5	-5.5	inactive
H4C2	0	7	1.3	12.8	inactive

The list goes on, starting with the last 4 of the part before.
gene	two-siRNA summed score (-2 to +2)	mean protection from cisplatin (shift in death) (%)	protection from cisplatin (shift in death), siRNA C (%)	protection from cisplatin (shift in death), siRNA D (%)	Call
ARGLU1-DT	1	14.4	20.8	8	inactive
GRM5	0	-0.2	-3.4	3.1	inactive
SAYSD1	1	5.5	16.5	-5.5	inactive
H4C2	0	7	1.3	12.8	inactive
LOC343637	0	0.4	4.5	-3.6	inactive
LDHB	0	5.5	6.8	4.3	inactive
OTC	1	8.2	0.5	15.8	inactive
DAPK2	1	17.8	3.2	32.3	inactive
LOC440667	0	25.1	34.9	15.3	inactive
DIO2	0	6.8	10	3.7	inactive
LOC285544	1	18.1	2.7	33.4	inactive
TMX4	0	-2.2	-2.2	-2.3	inactive
NDUFAF1	0	9.3	11.6	7	inactive
OVOS1P	0	11.1	12.7	9.4	inactive
LOC345643	0	-2.7	-2.1	-3.2	inactive
BNC1	1	14	15.5	12.4	inactive
SLC26A6	0	6.1	1.8	10.3	inactive
CD33	-1	-6.8	-24.7	11.1	inactive
LOC440691	0	4.6	-1.7	11	inactive
TPP2	0	3.4	7.8	-0.9	inactive
CYP39A1	-1	-28.1	-41.5	-14.7	inactive
LOC440477	2	20.3	9.7	30.9	active
TMT1A	-1	-7.8	-14	-1.7	inactive
RAD54L	1	4.5	-9.8	18.7	inactive
PCBP1	-1	-10.1	-1.7	-18.5	inactive
STAB2	-1	-11.2	-18.2	-4.2	inactive
LINC00319	0	-2	-10.1	6.1	inactive
LOC400920	0	0.3	12.3	-11.7	inactive
IRAK2	0	10.8	8.6	13	inactive
GSTM1	-1	-15.9	-40.5	8.7	inactive
SLC16A8	1	-0.6	12.9	-14.1	inactive
FAM13A	1	11.3	4.1	18.4	inactive
LOC286561	1	34.7	49.9	19.5	inactive
CDX4	0	1.8	-6	9.6	inactive
